For experiment [1], the target named is T1, NOXO1, human (human (endogenous in HUVEC and DLD1)) (UniProt Q8NFA2).
T1 sequence: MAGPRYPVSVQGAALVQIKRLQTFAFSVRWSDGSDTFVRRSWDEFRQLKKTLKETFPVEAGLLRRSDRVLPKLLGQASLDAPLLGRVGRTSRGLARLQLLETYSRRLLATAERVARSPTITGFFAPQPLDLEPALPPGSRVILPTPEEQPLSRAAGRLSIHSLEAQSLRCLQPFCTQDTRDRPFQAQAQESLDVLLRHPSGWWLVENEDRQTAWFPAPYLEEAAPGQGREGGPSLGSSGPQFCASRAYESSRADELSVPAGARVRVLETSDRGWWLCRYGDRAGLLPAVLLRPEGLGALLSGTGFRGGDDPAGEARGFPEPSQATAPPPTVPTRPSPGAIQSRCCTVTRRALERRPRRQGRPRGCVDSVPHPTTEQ
Nature of the experiment: co-IP; endogenous proteins in whole lysates of human cells (HUVEC, DLD1); NP-40 lysis buffer with protease and phosphatase inhibitors; primary antibody overnight at 4 °C, protein G magnetic beads 2 h at 4 °C, three washes; Western blot.

The chains behind the UniProt entries cited, without tags or fusion partners. Where a name states a change or a piece, a line headed by the entry shows the natural chain unless it says otherwise.
UniProt Q9Y5S8: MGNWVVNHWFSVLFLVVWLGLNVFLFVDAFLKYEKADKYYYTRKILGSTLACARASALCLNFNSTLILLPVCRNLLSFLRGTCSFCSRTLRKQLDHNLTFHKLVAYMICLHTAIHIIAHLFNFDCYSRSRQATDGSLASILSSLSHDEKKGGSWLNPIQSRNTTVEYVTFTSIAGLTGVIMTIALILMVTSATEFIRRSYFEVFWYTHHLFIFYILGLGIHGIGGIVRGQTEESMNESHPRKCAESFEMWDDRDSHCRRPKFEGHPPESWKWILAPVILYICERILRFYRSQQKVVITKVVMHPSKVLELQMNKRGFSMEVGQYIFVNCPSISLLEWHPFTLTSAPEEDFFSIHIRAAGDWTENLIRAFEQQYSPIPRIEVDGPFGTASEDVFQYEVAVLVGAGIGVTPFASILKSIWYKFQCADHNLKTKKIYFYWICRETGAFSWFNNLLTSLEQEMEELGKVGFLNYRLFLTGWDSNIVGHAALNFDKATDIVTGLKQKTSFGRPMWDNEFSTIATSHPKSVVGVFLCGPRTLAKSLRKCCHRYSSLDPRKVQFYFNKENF
UniProt Q8CIZ9: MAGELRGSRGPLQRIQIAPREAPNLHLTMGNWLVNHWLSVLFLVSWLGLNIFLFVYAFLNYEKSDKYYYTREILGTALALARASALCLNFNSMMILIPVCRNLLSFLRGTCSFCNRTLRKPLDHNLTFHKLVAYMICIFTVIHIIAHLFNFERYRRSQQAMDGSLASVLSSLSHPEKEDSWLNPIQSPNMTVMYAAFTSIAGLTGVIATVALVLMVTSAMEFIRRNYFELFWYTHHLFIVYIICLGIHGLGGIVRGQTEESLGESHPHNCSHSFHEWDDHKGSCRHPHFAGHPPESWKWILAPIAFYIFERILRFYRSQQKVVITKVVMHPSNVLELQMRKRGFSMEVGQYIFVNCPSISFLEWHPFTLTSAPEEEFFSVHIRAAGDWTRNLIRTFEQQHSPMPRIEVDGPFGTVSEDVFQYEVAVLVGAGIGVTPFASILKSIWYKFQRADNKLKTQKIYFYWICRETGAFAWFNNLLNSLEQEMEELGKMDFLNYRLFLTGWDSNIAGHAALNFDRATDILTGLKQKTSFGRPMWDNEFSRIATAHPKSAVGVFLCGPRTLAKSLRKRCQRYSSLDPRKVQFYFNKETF
UniProt P78536: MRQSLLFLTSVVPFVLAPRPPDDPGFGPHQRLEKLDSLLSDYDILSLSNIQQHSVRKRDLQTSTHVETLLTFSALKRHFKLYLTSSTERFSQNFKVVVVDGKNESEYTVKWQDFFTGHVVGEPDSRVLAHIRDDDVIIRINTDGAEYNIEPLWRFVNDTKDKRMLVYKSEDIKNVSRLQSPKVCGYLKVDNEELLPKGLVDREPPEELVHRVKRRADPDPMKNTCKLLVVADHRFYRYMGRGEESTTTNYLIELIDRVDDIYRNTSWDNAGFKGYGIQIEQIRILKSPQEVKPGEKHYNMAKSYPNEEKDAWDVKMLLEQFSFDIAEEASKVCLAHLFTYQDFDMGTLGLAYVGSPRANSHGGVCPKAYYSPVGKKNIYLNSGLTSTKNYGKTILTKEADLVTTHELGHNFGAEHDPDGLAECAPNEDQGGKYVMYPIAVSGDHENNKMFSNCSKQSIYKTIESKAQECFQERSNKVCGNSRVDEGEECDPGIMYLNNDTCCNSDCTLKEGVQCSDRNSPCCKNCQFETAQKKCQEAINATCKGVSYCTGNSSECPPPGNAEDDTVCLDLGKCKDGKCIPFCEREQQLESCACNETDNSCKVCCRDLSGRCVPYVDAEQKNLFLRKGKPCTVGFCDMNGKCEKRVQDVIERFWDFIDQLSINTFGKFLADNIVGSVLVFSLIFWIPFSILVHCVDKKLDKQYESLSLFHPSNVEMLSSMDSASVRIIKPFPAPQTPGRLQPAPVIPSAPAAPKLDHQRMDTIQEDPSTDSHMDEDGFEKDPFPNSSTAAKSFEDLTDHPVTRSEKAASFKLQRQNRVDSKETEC
UniProt Q9Z0F8: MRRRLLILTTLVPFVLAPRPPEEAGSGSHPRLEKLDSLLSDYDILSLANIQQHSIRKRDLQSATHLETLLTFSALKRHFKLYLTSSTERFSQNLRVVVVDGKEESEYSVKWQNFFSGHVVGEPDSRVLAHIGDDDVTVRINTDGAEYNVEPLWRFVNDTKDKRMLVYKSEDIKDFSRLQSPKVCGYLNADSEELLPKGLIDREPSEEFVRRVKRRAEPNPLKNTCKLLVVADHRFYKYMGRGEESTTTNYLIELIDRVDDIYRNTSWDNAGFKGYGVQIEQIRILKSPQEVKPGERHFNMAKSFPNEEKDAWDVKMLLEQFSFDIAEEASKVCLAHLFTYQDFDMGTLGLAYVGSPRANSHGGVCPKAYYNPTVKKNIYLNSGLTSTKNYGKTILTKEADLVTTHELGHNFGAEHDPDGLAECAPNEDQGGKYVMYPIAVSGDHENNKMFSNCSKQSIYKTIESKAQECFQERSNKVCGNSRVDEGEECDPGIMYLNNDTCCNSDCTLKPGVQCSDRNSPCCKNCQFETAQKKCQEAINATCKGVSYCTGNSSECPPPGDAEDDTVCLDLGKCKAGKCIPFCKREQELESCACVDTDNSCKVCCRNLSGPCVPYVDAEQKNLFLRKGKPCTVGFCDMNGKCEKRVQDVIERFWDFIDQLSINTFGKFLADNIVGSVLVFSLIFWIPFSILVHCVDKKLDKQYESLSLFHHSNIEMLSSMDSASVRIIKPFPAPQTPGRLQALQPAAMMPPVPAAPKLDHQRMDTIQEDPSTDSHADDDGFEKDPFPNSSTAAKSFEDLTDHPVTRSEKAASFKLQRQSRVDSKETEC

In experiment [2] the target is NOX1, human (human (endogenous in HUVEC and DLD1)) (UniProt Q9Y5S8). The description is as above.
The target of experiment [3] is T2, membrane melanoma cell adhesion molecule (MCAM), human (human (endogenous in HUVEC and DLD1)) (UniProt P43121).
T2 sequence: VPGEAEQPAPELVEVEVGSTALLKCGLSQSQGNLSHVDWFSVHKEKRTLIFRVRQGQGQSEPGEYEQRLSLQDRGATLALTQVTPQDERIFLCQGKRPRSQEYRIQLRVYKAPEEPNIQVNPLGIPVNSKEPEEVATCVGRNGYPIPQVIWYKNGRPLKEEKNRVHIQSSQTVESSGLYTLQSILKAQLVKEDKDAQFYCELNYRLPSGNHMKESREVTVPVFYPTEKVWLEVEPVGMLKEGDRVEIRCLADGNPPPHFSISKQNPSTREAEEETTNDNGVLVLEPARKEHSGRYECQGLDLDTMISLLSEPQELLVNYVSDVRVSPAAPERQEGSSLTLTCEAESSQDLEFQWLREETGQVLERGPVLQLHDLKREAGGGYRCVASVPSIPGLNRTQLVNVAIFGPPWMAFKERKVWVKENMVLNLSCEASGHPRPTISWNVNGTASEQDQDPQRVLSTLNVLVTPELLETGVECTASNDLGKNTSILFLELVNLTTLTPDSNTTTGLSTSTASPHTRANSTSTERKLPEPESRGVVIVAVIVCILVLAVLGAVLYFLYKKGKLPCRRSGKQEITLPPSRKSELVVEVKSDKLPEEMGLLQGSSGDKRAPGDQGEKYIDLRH
The description is as above.

Experiment [4] deals with T3, membrane melanoma cell adhesion molecule (MCAM), mouse (mouse (endogenous in MC38 and B16F10)) (UniProt Q8R2Y2).
T3 sequence: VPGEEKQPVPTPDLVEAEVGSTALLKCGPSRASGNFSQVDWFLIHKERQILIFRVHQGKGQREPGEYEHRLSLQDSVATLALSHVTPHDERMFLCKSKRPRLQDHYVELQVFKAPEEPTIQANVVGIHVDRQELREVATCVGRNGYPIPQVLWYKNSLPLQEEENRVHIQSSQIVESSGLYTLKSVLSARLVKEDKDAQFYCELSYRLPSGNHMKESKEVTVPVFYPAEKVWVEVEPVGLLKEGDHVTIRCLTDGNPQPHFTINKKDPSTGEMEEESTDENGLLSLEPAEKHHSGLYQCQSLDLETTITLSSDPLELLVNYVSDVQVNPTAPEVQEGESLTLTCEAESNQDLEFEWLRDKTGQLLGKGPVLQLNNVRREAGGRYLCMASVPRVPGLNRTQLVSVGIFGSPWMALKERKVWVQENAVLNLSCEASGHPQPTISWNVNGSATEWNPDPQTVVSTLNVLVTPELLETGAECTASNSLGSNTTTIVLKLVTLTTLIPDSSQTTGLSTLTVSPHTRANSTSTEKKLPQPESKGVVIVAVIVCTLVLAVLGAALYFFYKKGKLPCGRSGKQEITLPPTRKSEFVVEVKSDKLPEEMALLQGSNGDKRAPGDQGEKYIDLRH
Description: co-IP; endogenous proteins in whole lysates of mouse cancer cells (MC38, B16F10); NP-40 lysis buffer with protease and phosphatase inhibitors; primary antibody overnight at 4 °C, protein G magnetic beads 2 h at 4 °C, three washes; Western blot. (In general: Immunoblotting shows a protein as a band on a membrane.)

Experiment [5] addresses NOX1, mouse (mouse (endogenous in MC38 and B16F10)) (UniProt Q8CIZ9). The experiment is described as above.
Experiment [6] deals with ADAM17, human (human (endogenous in HUVEC and DLD1)) (UniProt P78536). Description: co-IP; endogenous proteins in whole lysates of human cells (HUVEC, DLD1); NP-40 lysis buffer with protease and phosphatase inhibitors; primary antibody overnight at 4 °C, protein G magnetic beads 2 h at 4 °C, three washes; Western blot.
Experiment [7] deals with ADAM17, mouse (mouse (endogenous in MC38 and B16F10)) (UniProt Q9Z0F8). Description: co-IP; endogenous proteins in whole lysates of mouse cancer cells (MC38, B16F10); NP-40 lysis buffer with protease and phosphatase inhibitors; primary antibody overnight at 4 °C, protein G magnetic beads 2 h at 4 °C, three washes; Western blot.

These are yes or no findings as the source states them, for the method shown. In cells and extracts the contact can be indirect. A result given as binding can be weak or reduced; the word gives no strength.

For the molecule “ADAM17, human (from UniProt P78536) (enzyme)”, the binding entry in experiment [1], in experiment [2] and in experiment [3] was “binds” in each case.

Consider “ADAM17, mouse (from UniProt Q9Z0F8) (enzyme)”, for which the binding result in experiment [4] and in experiment [5] was “binds” in each case.

In the case of “NOX1, human (from UniProt Q9Y5S8 1-564) (enzyme)”, the binding result in experiment [6] is given as “binds”.

“NOX1, mouse (from UniProt Q8CIZ9 1-591) (enzyme)”: the binding entry in experiment [7] is given as “binds”.

On to “membrane melanoma cell adhesion molecule (MCAM), human (from UniProt P43121 24-646)”, for which, in experiment [6], the binding entry is “binds”.

B1: membrane melanoma cell adhesion molecule (MCAM), mouse (protein, UniProt Q8R2Y2 24-648)
chain: T3 sequence
For B1, the binding entry in experiment [7] is on record as “binds”.
